Our source for the binding values is paper PMC6356446.

Sequences of proteins named here, by UniProt entry; tags and fusion partners are left off. Residues count along the entry.
UniProt P08581, residues 25-1390: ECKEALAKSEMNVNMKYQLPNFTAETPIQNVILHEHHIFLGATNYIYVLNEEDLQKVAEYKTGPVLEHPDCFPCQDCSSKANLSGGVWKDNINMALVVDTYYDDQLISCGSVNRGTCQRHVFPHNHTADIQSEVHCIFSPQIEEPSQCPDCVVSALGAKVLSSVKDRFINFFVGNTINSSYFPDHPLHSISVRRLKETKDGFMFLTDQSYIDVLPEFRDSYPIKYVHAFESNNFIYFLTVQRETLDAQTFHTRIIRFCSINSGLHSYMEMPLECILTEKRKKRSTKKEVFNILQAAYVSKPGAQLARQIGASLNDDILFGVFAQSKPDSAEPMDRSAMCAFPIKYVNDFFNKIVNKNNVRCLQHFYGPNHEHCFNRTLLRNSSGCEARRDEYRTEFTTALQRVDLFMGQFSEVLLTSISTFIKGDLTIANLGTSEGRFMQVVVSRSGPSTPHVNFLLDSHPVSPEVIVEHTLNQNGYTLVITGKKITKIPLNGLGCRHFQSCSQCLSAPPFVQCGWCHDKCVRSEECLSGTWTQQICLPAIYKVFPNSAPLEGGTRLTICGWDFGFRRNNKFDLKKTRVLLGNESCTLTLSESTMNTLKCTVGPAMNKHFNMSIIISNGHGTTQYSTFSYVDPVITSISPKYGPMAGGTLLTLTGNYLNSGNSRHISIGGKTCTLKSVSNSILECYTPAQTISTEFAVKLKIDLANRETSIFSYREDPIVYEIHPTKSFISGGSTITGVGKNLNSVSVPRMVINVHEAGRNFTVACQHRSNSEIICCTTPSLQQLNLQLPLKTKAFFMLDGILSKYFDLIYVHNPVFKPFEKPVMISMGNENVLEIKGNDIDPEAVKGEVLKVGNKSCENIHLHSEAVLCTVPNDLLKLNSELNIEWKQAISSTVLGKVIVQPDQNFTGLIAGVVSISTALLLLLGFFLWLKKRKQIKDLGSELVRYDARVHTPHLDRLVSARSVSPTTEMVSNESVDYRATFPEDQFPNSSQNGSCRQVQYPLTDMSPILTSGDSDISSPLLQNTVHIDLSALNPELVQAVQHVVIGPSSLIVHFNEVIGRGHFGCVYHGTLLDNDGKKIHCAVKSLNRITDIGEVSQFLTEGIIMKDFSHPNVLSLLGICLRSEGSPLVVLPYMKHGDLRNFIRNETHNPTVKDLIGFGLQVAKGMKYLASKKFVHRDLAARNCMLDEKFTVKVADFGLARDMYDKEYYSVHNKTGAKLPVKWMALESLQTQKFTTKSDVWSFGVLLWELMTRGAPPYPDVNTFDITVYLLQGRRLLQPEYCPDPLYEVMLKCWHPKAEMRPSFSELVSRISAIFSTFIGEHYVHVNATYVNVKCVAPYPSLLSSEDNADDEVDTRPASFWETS
UniProt P14210, residues 32-728: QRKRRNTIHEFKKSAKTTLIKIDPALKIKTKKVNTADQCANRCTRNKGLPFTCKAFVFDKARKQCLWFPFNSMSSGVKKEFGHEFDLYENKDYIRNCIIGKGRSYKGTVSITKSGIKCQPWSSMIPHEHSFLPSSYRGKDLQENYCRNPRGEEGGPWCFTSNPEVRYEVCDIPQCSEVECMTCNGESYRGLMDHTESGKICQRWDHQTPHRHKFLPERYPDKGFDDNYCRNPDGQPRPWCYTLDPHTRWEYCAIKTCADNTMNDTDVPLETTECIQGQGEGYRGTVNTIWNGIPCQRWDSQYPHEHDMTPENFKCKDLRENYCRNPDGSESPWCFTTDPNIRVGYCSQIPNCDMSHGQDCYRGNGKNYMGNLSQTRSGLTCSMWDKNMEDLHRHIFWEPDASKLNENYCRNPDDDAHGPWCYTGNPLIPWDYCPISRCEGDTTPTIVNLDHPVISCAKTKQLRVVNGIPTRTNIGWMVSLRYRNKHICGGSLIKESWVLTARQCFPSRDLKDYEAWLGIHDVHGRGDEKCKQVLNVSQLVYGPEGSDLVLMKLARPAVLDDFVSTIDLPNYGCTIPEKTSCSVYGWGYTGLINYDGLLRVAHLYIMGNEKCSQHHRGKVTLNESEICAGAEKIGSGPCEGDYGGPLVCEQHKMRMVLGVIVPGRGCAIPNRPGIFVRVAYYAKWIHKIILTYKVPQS

No constants are given. Whether binding was seen depends on the method and setting. Some entries that bind do so weakly or less than the wild type.

The target of this assay is c-Met (human (endogenous in HCC413)) (UniProt P08581). Kind of assay: flow cytometry on cells; HCC413 cells treated with EGF-FITC or HGF-FITC alone or with unlabeled LZ-8 for 15 min; fixed; relative mean fluorescence intensity; only the binder purified.

Take “FITC-labeled HGF (from UniProt P14210 32-728) (ligand)”: the binding entry is reported as “binds”.
